# Measured values: PubChem BioAssay AID330 (DTP/NCI, 2004)
# The list is a part of this screen's results and no random one: it gathers tests that were run many times, whatever their T/C, doses with no T/C, and many T/C values between a quarter and a half above the control. Further doses and runs are listed elsewhere. T/C gives the treated animals as a percentage of the vehicle group. Some doses have a count of surviving animals in place of a T/C: the source files T/C as zero there, which appears to mark a toxic dose or a test without result, not a measured value. Some survivor counts are full or nearly so, which does not show that the dose was tolerated: survival well below the control is almost never listed, so the zero probably covers shortened survival too. Counts of survivors are from the toxicity check (mostly the fifth day) where no day follows; animals may have died later. Schedules are NCI's codes, taken here to give the interval after Q, in days (D) or hours (H), and the number of doses after X. Some structures stand for samples that the source files as different forms (salt, stereo form or complex); doses refer to the form tested. Some doses were run more than once; the results are listed from low to high. Where survival is the endpoint, the PubChem record calls one and a half times the control and up active, and a quarter to a half above the control has no call in these data; cut-offs in other NCI protocols can differ. Some T/C values are followed by the survivors on the day toxicity was checked, most often the fifth; where none is given, no animal had died by that day.
# System: P388 leukemia ip, CD2F1 mice, survival T/C
# Experiment: NCI In Vivo Anticancer Drug Screen. Data for tumor model P388 Leukemia (intraperitoneal) in CD2F1 (CDF1) mice
# Conditions: T/C endpoint: median survival time, higher T/C = longer survival
# [1] = dose: 12.5 mg/kg/injection, schedule: Q01DX009 (ip), vehicle: water
# [2] = dose: 50.0 mg/kg/injection, schedule: Q01DX009 (ip), vehicle: water
# [3] = dose: 200.0 mg/kg/injection, schedule: Q01DX005 (ip), vehicle: Klucel (hydroxypropylcellulose) (HPC)
# [4] = dose: 200.0 mg/kg/injection, schedule: Q01DX005 (ip), vehicle: saline with Tween-80
# [5] = dose: 100.0 mg/kg/injection, schedule: Q01DX009 (ip), vehicle: saline
# [6] = dose: 200.0 mg/kg/injection, schedule: Q01DX009 (ip), vehicle: saline
# [7] = dose: 240.0 mg/kg/injection, schedule: Q01DX005 (ip), vehicle: saline with Tween-80
# [8] = dose: 200.0 mg/kg/injection, schedule: Q01DX005 (ip), vehicle: saline
# [9] = dose: 200.0 mg/kg/injection, schedule: Q01DX009 (ip), vehicle: Klucel (hydroxypropylcellulose) (HPC)
# [10] = dose: 400.0 mg/kg/injection, schedule: Q01DX009 (ip), vehicle: saline with Tween-80
# [11] = dose: 50.0 mg/kg/injection, schedule: Q01DX005 (ip), vehicle: saline with Tween-80
# [12] = dose: 100.0 mg/kg/injection, schedule: Q01DX005 (ip), vehicle: saline with Tween-80
# [13] = dose: 200.0 mg/kg/injection, schedule: Q04DX003 (ip), vehicle: saline
smiles,measurement,setting,value
Cn1cnc([N+](=O)[O-])c1[Se]c1nc(N)nc2c1ncn2C1OC(CO)C(O)C1O (centres undefined),T/C,"dose: 4.0 mg/kg/injection, schedule: Q01DX009 (ip), vehicle: water",126 % of control
same,T/C,"dose: 8.0 mg/kg/injection, schedule: Q01DX009 (ip), vehicle: distilled water + Tween-80",134 % of control
same,T/C,"dose: 8.0 mg/kg/injection, schedule: Q01DX009 (ip), vehicle: water",130 % of control
same,T/C,"dose: 16.0 mg/kg/injection, schedule: Q01DX009 (ip), vehicle: distilled water + Tween-80",142 % of control
same,T/C,"dose: 16.0 mg/kg/injection, schedule: Q01DX009 (ip), vehicle: water",142 % of control
same,survivor count,"dose: 128.0 mg/kg/injection, schedule: Q01DX009 (ip), vehicle: water",3 of 6
COc1cccc2c1C(=O)c1c(O)c3c(c(O)c1C2=O)CC(O)(C(=O)C(C)C)CC3OC1CC(N)C(O)C(C)O1 (centres undefined),survivor count,[1],3 of 3
same,survivor count,"dose: 25.0 mg/kg/injection, schedule: Q01DX009 (ip), vehicle: water",0 of 3
same,T/C,"dose: 37.5 mg/kg/injection, schedule: Q04DX003 (ip), vehicle: water",128 % of control
same,survivor count,[2],0 of 3
same,survivor count,"dose: 150.0 mg/kg/injection, schedule: Q04DX003 (ip), vehicle: water",0 of 3
Nc1cccc2c1C(=O)c1ccc(C(=O)O)cc1C2=O,survivor count,[3],6 of 6
O=C1NC2(CCCCC2)C(=O)N1CO,survivor count,[4],1 of 6
COc1ccc(/C=C/c2ccc3ccccc3[n+]2C)cc1,T/C,"dose: 16.5 mg/kg/injection, schedule: Q01DX009 (ip), vehicle: saline with Tween-80",129 % of control
same,T/C,"dose: 25.0 mg/kg/injection, schedule: Q01DX009 (ip), vehicle: saline with Tween-80",127 % of control
same,T/C,"dose: 37.5 mg/kg/injection, schedule: Q01DX009 (ip), vehicle: saline with Tween-80",131 % of control
same,survivor count,"dose: 50.0 mg/kg/injection, schedule: Q01DX009 (ip), vehicle: saline with Tween-80",3 of 6
same,survivor count,"dose: 100.0 mg/kg/injection, schedule: Q01DX009 (ip), vehicle: saline with Tween-80",0 of 6
Cc1cccc(C(=O)CCN(C)C)c1,survivor count,[5],4 of 6
same,survivor count,[6],0 of 6
COC(=O)c1c(O)c2c(c3c1OC(C)(C)CC3)OC(C)(C)CC2,survivor count,[7],6 of 6
COc1ccc(CCN2C(=O)CC(CC3=NCCc4cc(OC)c(OC)cc43)CC2=O)cc1OC,survivor count,[8],0 of 6
CC(=O)[C@]1(O)Cc2c(O)c3c(c(O)c2[C@@H](OC2CC(NC(=O)C(F)(F)F)C(O)C(C)O2)C1)C(=O)c1c(O)cccc1C3=O (some centres undefined),T/C,"dose: 50.0 mg/kg/injection, schedule: Q04DX003 (ip), vehicle: water",144 % of control
CSCCC(NC(=O)C(Cc1c[nH]c2ccccc12)NC(=O)OC(C)(C)C)C(=O)NN (centres undefined),T/C,"dose: 100.0 mg/kg/injection, schedule: Q01DX009 (ip), vehicle: Klucel (hydroxypropylcellulose) (HPC)",127 % of control
same,T/C,[9],127 % of control
CC12CCCCC1=CC(=O)CC2 (centres undefined),T/C,"dose: 100.0 mg/kg/injection, schedule: Q01DX009 (ip), vehicle: other",134 % of control
same,survivor count,"dose: 200.0 mg/kg/injection, schedule: Q01DX009 (ip), vehicle: saline + Tween-80 + alcohol",2 of 6
CCC(/C=N/N=C(N)N)=N\N=C(N)N,survivor count,[8],0 of 6
O=C(O)C1(NO)CCCCC1,T/C,[9],126 % of control
same,T/C,"dose: 400.0 mg/kg/injection, schedule: Q01DX009 (ip), vehicle: Klucel (hydroxypropylcellulose) (HPC)",142 % of control
CCOC(=O)c1ccccc1OP(=O)(N(C)C)N(C)C,survivor count,[10],0 of 6 and 1 of 6
CCCn1c2c(c3ccccc3c1=O)C(=O)c1ccccc1-2,survivor count,[11],5 of 5
same,survivor count,[12],5 of 5
same,survivor count,[4],5 of 5
O=S(=O)(CI)OCCCl,survivor count,[3],0 of 6
O=C1C2=C(Nc3ccccc3N2)OC1c1ccccc1Cl (centres undefined),survivor count,"dose: 240.0 mg/kg/injection, schedule: Q01DX005 (ip), vehicle: Klucel (hydroxypropylcellulose) (HPC)",6 of 6
Cc1ccc([P+](CCN2C(=O)c3ccccc3C2=O)(c2ccc(C)cc2)c2ccc(C)cc2)cc1,T/C,"dose: 6.25 mg/kg/injection, schedule: Q01DX009 (ip), vehicle: water",127 % of control
same,survivor count,[1],3 of 6
CC(C)(C)c1ccc(S(=O)[O][Sn]([CH3])([CH3])[O]S(=O)c2ccc(C(C)(C)C)cc2)cc1 (centres undefined),survivor count,"dose: 100.0 mg/kg/injection, schedule: Q01DX001 (ip), vehicle: Klucel (hydroxypropylcellulose) (HPC)",0 of 6 and 1 of 6
same,survivor count,"dose: 200.0 mg/kg/injection, schedule: Q01DX001 (ip), vehicle: Klucel (hydroxypropylcellulose) (HPC)",3 of 6
same,survivor count,"dose: 400.0 mg/kg/injection, schedule: Q01DX001 (ip), vehicle: Klucel (hydroxypropylcellulose) (HPC)",0 of 6
CNC(=O)Nc1nc2ccccc2[nH]1,T/C,"dose: 200.0 mg/kg/injection, schedule: Q04DX003 (ip), vehicle: Klucel (hydroxypropylcellulose) (HPC)",128 % of control
same,T/C,"dose: 400.0 mg/kg/injection, schedule: Q04DX003 (ip), vehicle: Klucel (hydroxypropylcellulose) (HPC)",130 % of control
COc1ccccc1OC(C)=O,survivor count,[5],6 of 6
CC(C)NCC(=O)c1ccc(O)c(O)c1,T/C,[5],125 and 127 % of control
same,T/C,[6],127 and 129 % of control
same,T/C,"dose: 264.0 mg/kg/injection, schedule: Q01DX009 (ip), vehicle: saline with Tween-80",136 % of control
same,T/C,[10],127 % of control
same,survivor count,"dose: 400.0 mg/kg/injection, schedule: Q01DX009 (ip), vehicle: saline",2 of 6 and 3 of 6
same,survivor count,"dose: 600.0 mg/kg/injection, schedule: Q01DX009 (ip), vehicle: saline with Tween-80",2 of 6
same,survivor count,"dose: 600.0 mg/kg/injection, schedule: Q01DX009 (ip), vehicle: saline",0 of 6
COc1cc(NC(C)CCCN)c2nc(C)ccc2c1Oc1ccc(F)cc1 (centres undefined),survivor count,[2],0 of 6
same,survivor count,"dose: 100.0 mg/kg/injection, schedule: Q01DX009 (ip), vehicle: water",0 of 6
same,survivor count,"dose: 200.0 mg/kg/injection, schedule: Q01DX009 (ip), vehicle: water",0 of 6
CC1(C)CC[P+](CC[P+]2(c3ccccc3)CCC(C)(C)c3ccccc32)(c2ccccc2)c2ccccc21 (centres undefined),survivor count,"dose: 6.25 mg/kg/injection, schedule: Q01DX005 (ip), vehicle: suspension in saline",4 of 5
same,survivor count,"dose: 12.5 mg/kg/injection, schedule: Q01DX005 (ip), vehicle: suspension in saline",0 of 5
same,survivor count,[11],5 of 5
same,survivor count,"dose: 50.0 mg/kg/injection, schedule: Q01DX005 (ip), vehicle: saline",0 of 5
same,survivor count,[12],0 of 5
same,survivor count,"dose: 100.0 mg/kg/injection, schedule: Q01DX005 (ip), vehicle: saline",0 of 5
same,survivor count,[4],0 of 5
same,survivor count,[8],0 of 5
O=S(=O)(O)SCCNCCCCC1CCCCC1,survivor count,"dose: 60.0 mg/kg/injection, schedule: Q01DX005 (ip), vehicle: saline with Tween-80",3 of 6
same,survivor count,"dose: 120.0 mg/kg/injection, schedule: Q01DX005 (ip), vehicle: saline with Tween-80",0 of 6
same,survivor count,[7],0 of 6
Nc1cccnc1N,survivor count,"dose: 25.0 mg/kg/injection, schedule: Q01DX009 (ip), vehicle: saline",1 of 6 and 3 of 6
same,survivor count,"dose: 40.0 mg/kg/injection, schedule: Q01DX009 (ip), vehicle: saline",0 of 6
same,survivor count,"dose: 50.0 mg/kg/injection, schedule: Q01DX009 (ip), vehicle: saline",0 of 6
same,survivor count,[5],0 of 6
same,survivor count,[6],0 of 6
Cn1c(=O)ccc2ccccc21,T/C,[13],138 % of control [5 of 6 alive]
same,survivor count,[13],4 of 6
same,survivor count,"dose: 400.0 mg/kg/injection, schedule: Q04DX003 (ip), vehicle: saline",0 of 6 and 1 of 6
NNC(=O)CC(N)=O,survivor count,"dose: 100.0 mg/kg/injection, schedule: Q04DX003 (ip), vehicle: saline",6 of 6
